Data source: PubChem BioAssay AID652272 (Drosophila RNAi Screening Center, 2013)
Test: 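Genes whose knock-down decreases or increases Hedgehog reporter output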 (primary screen). System: Drosophila clone 8 (Cl8) cells. Reagent: long dsRNA against Drosophila genes. Measured: 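Plate reader light from a firefly reporter under a ptc promoter fragment that responds to Hedgehog, with Renilla light as transfection reference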. Direction: firefly Hh reporter signal: higher = more ptc reporter light; Renilla reference signal: higher = more Renilla control light. Call rule: 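Hit when the z-score averaged over two replicates is under -2 or over +3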. Calls: active = hit: reporter lowered or raised; inactive = not a hit.
The deposit covers about 21,000 reagents; this is a random part of those with a known target gene and a result. Over the whole deposit, 503 (2.4%) got an active call. 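Raw plate light values, not normalised; calls rest on replicate z-scores that were not deposited; hits include reporter decreases as well as increases.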 The numbers tell different reagents against one gene apart. A plus sign joins genes that one reagent is predicted to hit. Not stated in the record: the amount of reagent, the time to read-out.

Gr58a: firefly Hh reporter signal, replicate 1 = 1.08e5; firefly Hh reporter signal, replicate 2 = 1.58e5; Renilla reference signal, replicate 1 = 3132; Renilla reference signal, replicate 2 = 7717; call = inactive
Kua: firefly Hh reporter signal, replicate 1 = 82561; firefly Hh reporter signal, replicate 2 = 58512; Renilla reference signal, replicate 1 = 2212; Renilla reference signal, replicate 2 = 5273; call = inactive
CG7215 + Prx5 #1: firefly Hh reporter signal, replicate 1 = 5.52e5; firefly Hh reporter signal, replicate 2 = 77651; Renilla reference signal, replicate 1 = 29760; Renilla reference signal, replicate 2 = 1852; call = inactive
CG7215 + Prx5 #2: firefly Hh reporter signal, replicate 1 = 1.56e5; firefly Hh reporter signal, replicate 2 = 70620; Renilla reference signal, replicate 1 = 5670; Renilla reference signal, replicate 2 = 1987; call = inactive
nxf4: firefly Hh reporter signal, replicate 1 = 64183; firefly Hh reporter signal, replicate 2 = 87532; Renilla reference signal, replicate 1 = 2556; Renilla reference signal, replicate 2 = 2650; call = inactive
Polr2K: firefly Hh reporter signal, replicate 1 = 1.27e5; firefly Hh reporter signal, replicate 2 = 2.64e5; Renilla reference signal, replicate 1 = 3338; Renilla reference signal, replicate 2 = 9924; call = inactive
CG11898: firefly Hh reporter signal, replicate 1 = 1.40e5; firefly Hh reporter signal, replicate 2 = 1.63e5; Renilla reference signal, replicate 1 = 3552; Renilla reference signal, replicate 2 = 4540; call = inactive
CG9897 + asRNA:CR42742: firefly Hh reporter signal, replicate 1 = 71676; firefly Hh reporter signal, replicate 2 = 50787; Renilla reference signal, replicate 1 = 1221; Renilla reference signal, replicate 2 = 5008; call = inactive
La: firefly Hh reporter signal, replicate 1 = 72315; firefly Hh reporter signal, replicate 2 = 41121; Renilla reference signal, replicate 1 = 2279; Renilla reference signal, replicate 2 = 4378; call = inactive
nrm #1: firefly Hh reporter signal, replicate 1 = 1.97e5; Renilla reference signal, replicate 1 = 4835; call = inactive
nrm #2: firefly Hh reporter signal, replicate 1 = 2.00e5; Renilla reference signal, replicate 1 = 3979; call = inactive
nrm #3: firefly Hh reporter signal, replicate 1 = 78016; firefly Hh reporter signal, replicate 2 = 99157; Renilla reference signal, replicate 1 = 2544; Renilla reference signal, replicate 2 = 2749; call = inactive
Rab39: firefly Hh reporter signal, replicate 1 = 77078; firefly Hh reporter signal, replicate 2 = 2.22e5; Renilla reference signal, replicate 1 = 1884; Renilla reference signal, replicate 2 = 9260; call = inactive
CG9864: firefly Hh reporter signal, replicate 1 = 74569; firefly Hh reporter signal, replicate 2 = 53452; Renilla reference signal, replicate 1 = 2123; Renilla reference signal, replicate 2 = 3832; call = inactive
CG42709: firefly Hh reporter signal, replicate 1 = 1.15e5; firefly Hh reporter signal, replicate 2 = 1.11e5; Renilla reference signal, replicate 1 = 4837; Renilla reference signal, replicate 2 = 4649; call = inactive
CG11029: firefly Hh reporter signal, replicate 1 = 90006; firefly Hh reporter signal, replicate 2 = 49845; Renilla reference signal, replicate 1 = 2611; Renilla reference signal, replicate 2 = 4296; call = inactive
CG14265: firefly Hh reporter signal, replicate 1 = 1.59e5; firefly Hh reporter signal, replicate 2 = 4.21e5; Renilla reference signal, replicate 1 = 5825; Renilla reference signal, replicate 2 = 14899; call = inactive
CG31998 #1: firefly Hh reporter signal, replicate 1 = 1.45e5; firefly Hh reporter signal, replicate 2 = 73348; Renilla reference signal, replicate 1 = 2710; Renilla reference signal, replicate 2 = 2800; call = inactive
CG31998 #2: firefly Hh reporter signal, replicate 1 = 73376; firefly Hh reporter signal, replicate 2 = 2.08e5; Renilla reference signal, replicate 1 = 2252; Renilla reference signal, replicate 2 = 7755; call = inactive
Agpat2: firefly Hh reporter signal, replicate 1 = 75276; firefly Hh reporter signal, replicate 2 = 41649; Renilla reference signal, replicate 1 = 3260; Renilla reference signal, replicate 2 = 1137; call = inactive
CG30371: firefly Hh reporter signal, replicate 1 = 80196; firefly Hh reporter signal, replicate 2 = 48011; Renilla reference signal, replicate 1 = 2184; Renilla reference signal, replicate 2 = 3516; call = inactive

Limited to “firefly Hh reporter signal, replicate 2” (2 entries from above):
CG31998 #2: 2.08e5
Agpat2: 41649
